From article doi:10.1101/2020.11.15.383513

Legend:
Test in all cases: affinity purification with mass spectrometry
[1] = biological target: actin (yeast, from total yeast cell extract) (S. cerevisiae (endogenous in yeast cell extract)) (UniProt P60010)
[2] = biological target: T1, bicyclic peptide A15 (F-/G-actin)
T1 sequence (peptide, FITC labeled (position not stated); bicyclic (circularized)): ACYRQWNKCENGWVRCG

[3] = biological target: T2, bicyclic peptide A18 (F-actin specific)
T2 sequence (peptide, FITC labeled (position not stated); bicyclic (circularized)): ACREGQVACMVRKFECG

[4] = biological target: actin (yeast, from total yeast cell extract) (S. cerevisiae (endogenous in yeast cell extract)) (UniProt P60010); remark: listed apart in the source

Las17 (from UniProt Q12446 1-633) was tested, and the binding [1] was “binds”.

For “actin (yeast, from total yeast cell extract) (from UniProt P60010 1-375)”, the binding [2] was “binds” and the binding [3] was “binds”.

B1: Pan1 (protein, UniProt P32521 1-1480)
chain: MYNPYQQQGMGYQQQQQQQQQQPNGFYPQQQQGQSSNQPQGQPQPQQQMAFNQPQATGIGGMPQSFGNSFSSMPQQPQTGYNNNGNNGSVYGNGNFGQQPQQQQQQAKPQHTGYVPNSSMPMMNTTGTMPPPNPAQQPQLQSIQPQGTGYYQAANTANVHSVQPLQSQGTGYYVSTPNLISSNQTQQPLQAQGTGYYQSQPQQVPPPQQAQSLQPLKPQQTGFYLQPQNQAPLEPLKPTATGFVNSFANNGLNNDIKIPAIRLSFITAQDQAKFETLFRSIVTNGSNTVSGANCRKILMRSGLPPSQLARIWTLCDTSKAGELLFPEFALAMHLINDVLQGDTIPYELDSKTKNEVSSFIDAINLSIANQDSSANDAPKTPFDEFITAGVQNLQPQPTGYMPQTSFGIPLQSQITGGGVASALNPQSTGFMAPTTFNMSMNTGTPGLNPQITGGAPASMQPNITGNALQPQTTGMMPQTTGMMPQTTGMMPQTSFGVNLGPQLTGGALQSQYTGGYGSVMPQQSGPASMPNLSFNQQGLQSQLTGLQPQPTGFLPPSNFSATMPLTAQKTGFGNNEIYTKSNFNNNLIDNSSQDKISTEEKSLFYKIFETFDTQNKGLLDSPTAVEIFRKSGLNRADLEQIWNLCDINNTGQLNKQEFALGMHLVYGKLNGKPIPNVLPSSLIPSSTKLLDNLKNQLKTEPTTTKEKPSFGKIDALSYKNNDDDVLPNYRNRRKVYSAKNEEQSSFSSPSAKSVNHSSSTLQTDDISVDKTVEKKTAKPKYAGFSREINLKNIASLENEIKNISNPENCYDSSIPSDLTSRFDAIIAKLPNLFNEISTIDNEITNAKIQLYRKKNPSSIIGSGPNGEITENDRKKAKSRALLRARMSALTGKSTESEDSLSMEDEQQSAEIKRIQQENGKNQEIIKDIRSSISDISASLKSTMTGSNMISNQEFERWEFGIGLEDGVREFLDDLKSNSNKSVTESSPFVPSSTPTPVDDRSSSPSYSQFKTAEERAAYLKEQAKKRMKEKLAKFDKNRRNVTQSSRSISSENSREQPQQIAGSSNLVEPRATPFQEEKYVEVAQPTQPVQSTQPVQPTQPVQPTQPVQPTQPVQPTQPVQPTQPVQNVYNAKQESDDEDEDDEEKRLQEELKRLKLKKKADKEKRLAALRKQIEDAQNESDEEETNGKDNFGGHVNVPQAAPVAPSAAFSQNSTNAPRSVHAAVTPAAGKNSTGLPSTTMGHNPYFKDASASSTSTFDARAAEMQRRIQRGLDEDEDDGWSDEDESNNRVAVDNKVEEAKIGHPDHARAPPVTAAPLPSVTPVPPAVPVPQANTSNEKSSPIPIAPIPPSVTQEPPVPLAPPLPAVDGFQEPPIPSAPAIATAVQKSGSSTPALAGGVLPPPPPLPTQQASTSEPIIAHVDNYNGAEKGTGAYGSDSDDDVLSIPESVGTDEEEEGAQPVSTAGIPSIPPAGIPPPPPLP
B1 was tested, and the binding [4] was “binds”.

B2: Sla2 (protein, UniProt P33338 1-968)
chain: MSRIDSDLQKALKKACSVEETAPKRKHVRACIVYTWDHQSSKAVFTTLKTLPLANDEVQLFKMLIVLHKIIQEGHPSALAEAIRDRDWIRSLGRVHSGGSSYSKLIREYVRYLVLKLDFHAHHRGFNNGTFEYEEYVSLVSVSDPDEGYETILDLMSLQDSLDEFSQIIFASIQSERRNTECKISALIPLIAESYGIYKFITSMLRAMHRQLNDAEGDAALQPLKERYELQHARLFEFYADCSSVKYLTTLVTIPKLPVDAPDVFLINDVDESKEIKFKKREPSVTPARTPARTPTPTPPVVAEPAISPRPVSQRTTSTPTGYLQTMPTGATTGMMIPTATGAANAIFPQATAQMQPDFWANQQAQFANEQNRLEQERVQQLQQQQAQQELFQQQLQKAQQDMMNMQLQQQNQHQNDLIALTNQYEKDQALLQQYDQRVQQLESEITTMDSTASKQLANKDEQLTALQDQLDVWERKYESLAKLYSQLRQEHLNLLPRFKKLQLKVNSAQESIQKKEQLEHKLKQKDLQMAELVKDRDRARLELERSINNAEADSAAATAAAETMTQDKMNPILDAILESGINTIQESVYNLDSPLSWSGPLTPPTFLLSLLESTSENATEFATSFNNLIVDGLAHGDQTEVIHCVSDFSTSMATLVTNSKAYAVTTLPQEQSDQILTLVKRCAREAQYFFEDLMSENLNQVGDEEKTDIVINANVDMQEKLQELSLAIEPLLNIQSVKSNKETNPHSELVATADKIVKSSEHLRVDVPKPLLSLALMIIDAVVALVKAAIQCQNEIATTTSIPLNQFYLKNSRWTEGLISAAKAVAGATNVLITTASKLITSEDNENTSPEQFIVASKEVAASTIQLVAASRVKTSIHSKAQDKLEHCSKDVTDACRSLGNHVMGMIEDDHSTSQQQQPLDFTSEHTLKTAEMEQQVEILKLEQSLSNARKRLGEIRRHAYYNQDDD
For B2, the binding [4] was “binds”.

Where two headings read alike, the source gives them in different places. These are yes or no findings as the source states them, for the method shown. In cells and extracts the contact can be indirect. Here binding means that the protein was enriched with, or labelled near, the bait; the list need not be complete.
